The values that follow come from paper PMC7515921, “MFSD7C switches mitochondrial ATP synthesis to thermogenesis in response to heme” (Nature Communications, 2020).

These are yes or no findings as the source states them, for the method shown. Binding seen in cells or lysates may run through a third protein. A yes stands for co-enrichment or nearness to the bait. Other partners may have been found. Tags and fused reporters may be left off the sequences shown.

This assay concerns the target T1, MFSD7C tagged with both Myc and FLAG epitopes (murine) (mouse) (UniProt Q91X85).
T1 sequence: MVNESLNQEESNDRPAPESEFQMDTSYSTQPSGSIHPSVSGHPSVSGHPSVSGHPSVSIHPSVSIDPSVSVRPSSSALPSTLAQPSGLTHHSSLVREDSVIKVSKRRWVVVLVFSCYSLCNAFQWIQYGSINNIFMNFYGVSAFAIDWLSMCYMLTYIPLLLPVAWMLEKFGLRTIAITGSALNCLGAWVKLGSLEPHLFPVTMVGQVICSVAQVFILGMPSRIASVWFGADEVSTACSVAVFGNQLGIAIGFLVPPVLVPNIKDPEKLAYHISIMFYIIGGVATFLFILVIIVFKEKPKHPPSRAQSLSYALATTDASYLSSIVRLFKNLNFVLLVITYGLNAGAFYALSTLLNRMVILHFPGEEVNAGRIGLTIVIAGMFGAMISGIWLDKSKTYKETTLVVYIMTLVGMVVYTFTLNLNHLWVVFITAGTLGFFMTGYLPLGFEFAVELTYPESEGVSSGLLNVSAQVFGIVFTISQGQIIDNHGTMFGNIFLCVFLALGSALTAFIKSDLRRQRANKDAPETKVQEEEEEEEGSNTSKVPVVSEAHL
The assay can be described thus: affinity purification with mass spectrometry; lysate of MH-S cells expressing MFSD7C-FLAG-Myc (control: GFP alone); 20 mM Tris-HCl pH 7.4, 150 mM NaCl, 0.1% NP-40, 10% glycerol; anti-FLAG beads, 3x FLAG peptide elution, then anti-Myc beads; LC-MS/MS.

B1: Oas1a (protein, UniProt P11928 1-367)
chain: MEHGLRSIPAWTLDKFIEDYLLPDTTFGADVKSAVNVVCDFLKERCFQGAAHPVRVSKVVKGGSSGKGTTLKGKSDADLVVFLNNLTSFEDQLNRRGEFIKEIKKQLYEVQHERRFRVKFEVQSSWWPNARSLSFKLSAPHLHQEVEFDVLPAFDVLGHVNTSSKPDPRIYAILIEECTSLGKDGEFSTCFTELQRNFLKQRPTKLKSLIRLVKHWYQLCKEKLGKPLPPQYALELLTVFAWEQGNGCYEFNTAQGFRTVLELVINYQHLRIYWTKYYDFQHQEVSKYLHRQLRKARPVILDPADPTGNVAGGNPEGWRRLAEEADVWLWYPCFIKKDGSRVSSWDVPTVVPVPFEQVEENWTCILL
On to B1, for which the binding entry was “binds”.

B2: Fcgr1 (protein, UniProt P26151 25-404)
chain: EVVNATKAVITLQPPWVSIFQKENVTLWCEGPHLPGDSSTQWFINGTAVQISTPSYSIPEASFQDSGEYRCQIGSSMPSDPVQLQIHNDWLLLQASRRVLTEGEPLALRCHGWKNKLVYNVVFYRNGKSFQFSSDSEVAILKTNLSHSGIYHCSGTGRHRYTSAGVSITVKELFTTPVLRASVSSPFPEGSLVTLNCETNLLLQRPGLQLHFSFYVGSKILEYRNTSSEYHIARAEREDAGFYWCEVATEDSSVLKRSPELELQVLGPQSSAPVWFHILFYLSVGIMFSLNTVLYVKIHRLQREKKYNLEVPLVSEQGKKANSFQQVRSDGVYEEVTATASQTTPKEAPDGPRSSVGDCGPEQPEPLPPSDSTGAQTSQS
Turning to B2, the binding result was “binds”.

B3: Tmx3 (protein, UniProt Q8BXZ1 30-456)
chain: FVEDLNESFKDNRKDDIWLVDFYAPWCGHCKKLEPIWNEVGLEMKSIGSPVKVGKMDATSYSSIASEFGVRGYPTIKLLKGDLAYNYRGPRTKDDIIEFAHRVSGALIRPLPSQQMFDHVRKRHRVFFVYIGGESPLKEKYIDAASELIVYTYFFSASEDVVPEYVTLKEMPAVLVFKDDTYFVYDEYEDGDLSSWISRERFQNYLTMDGFLLYELGDTGKLVAIAVIDEKNTSLEHTRLKSIIQEVARDFRDHFHRDFQFGHMDGNDYINTLLMDELTVPTIVVLNTSNQQYFLLDRHIKDASDMVQFINSILDGTVPAQGGDSIFQRLKRIVFDAKSTIVSIFKSSPLMGCFLFGLPLGVISIMCYGIYTADTDGGYIEERYEVSKSEMENQEQIEESKEQESSSGGSLAPTVQEPKDVLEKKKD
For B3, the binding entry is reported as “binds”.

B4: Slc16a1 (protein, UniProt P53986 1-493)
chain: MPPAIGGPVGYTPPDGGWGWAVLVGAFISIGFSYAFPKSITVFFKEIEVIFSATTSEVSWISSIMLAVMYAGGPISSILVNKYGSRPVMIAGGCLSGCGLIAASFCNTVQELYLCIGVIGGLGLAFNLNPALTMIGKYFYKKRPLANGLAMAGSPVFLSTLAPLNQAFFDIFDWRGSFLILGGLLLNCCVAGSLMRPIGPEQVKLEKLKSKESLQEAGKSDANTDLIGGSPKGEKLSVFQTINKFLDLSLFTHRGFLLYLSGNVVMFFGLFTPLVFLSSYGKSKDFSSEKSAFLLSILAFVDMVARPSMGLAANTKWIRPRIQYFFAASVVANGVCHLLAPLSTTYVGFCVYAGVFGFAFGWLSSVLFETLMDLIGPQRFSSAVGLVTIVECCPVLLGPPLLGRLNDMYGDYKYTYWACGVILIIAGIYLFIGMGINYRLLAKEQKAEEKQKREGKEDEASTDVDEKPKETMKAAQSPQQHSSGDPTEEESPV
As for B4, the binding entry was “binds”.

B5: Slc25a22 (protein, UniProt Q9D6M3 1-323)
chain: MADKQISLPAKLINGGIAGLIGVTCVFPIDLAKTRLQNQQNGQRMYASMSDCLIKTIRSEGYFGMYRGAAVNLTLVTPEKAIKLAANDFFRHQLSKDGQKLTLPKEMLAGCGAGTCQVIVTTPMEMLKIQLQDAGRIAAQRKILAAQAQLSAQGGAQPSVEAPAPPRPTATQLTRDLLRNHGIAGLYKGLGATLLRDVPFSIVYFPLFANLNQLGRPSSEEKSPFYVSFLAGCVAGSAAAVAVNPCDVVKTRLQSLERGVNEDTYSGFLDCARKIWRHEGPSAFLKGAYCRALVIAPLFGIAQVVYFLGIAESLLGLLQEPQA
Take B5: the binding result is given as “binds”.

B6: G3bp2 (protein, UniProt P97379 1-482)
chain: MVMEKPSPLLVGREFVRQYYTLLNKAPEYLHRFYGRNSSYVHGGVDASGKPQEAVYGQNDIHHKVLSLNFSECHTKIRHVDAHATLSDGVVVQVMGLLSNSGQPERKFMQTFVLAPEGSVPNKFYVHNDMFRYEDEVFGDSEPELDEESEDEVEEEQEDRQPSPEPVQENANSAYYDAHPVTNGIEEPLEESSHEPEPEPESETKTEELKPQVEEKHLEELEEKSATPPPAEPASLPQEPPKAFSWASVTSKNLPPSGTVSSSGIPPHVKAPVSQPRVDAKPEVQSQPPRVREQRPRERPGFPPRGPRPGRGDMEQNDSDNRRIIRYPDSHQLFVGNLPHDIDENELKEFFMSFGNVVELRINTKGVGGKLPNFGFVVFDDSEPVQRILIAKPIMFRGEVRLNVEEKKTRAARERETRGGGDDRRDIRRNDRGPGGPRGIVGGGMMRDRDGRGPPPRGGMTQKLGSGRGTGQMEGRFTGQRR
As to B6, the binding result was “binds”.

B7: Phb (protein, UniProt P67778 1-272)
chain: MAAKVFESIGKFGLALAVAGGVVNSALYNVDAGHRAVIFDRFRGVQDIVVGEGTHFLIPWVQKPIIFDCRSRPRNVPVITGSKDLQNVNITLRILFRPVASQLPRIYTSIGEDYDERVLPSITTEILKSVVARFDAGELITQRELVSRQVSDDLTERAATFGLILDDVSLTHLTFGKEFTEAVEAKQVAQQEAERARFVVEKAEQQKKAAIISAEGDSKAAELIANSLATAGDGLIELRKLEAAEDIAYQLSRSRNITYLPAGQSVLLQLPQ
As for B7, the binding result is listed as “binds”.

B8: Cap1 (protein, UniProt P40124 1-474)
chain: MADMQNLVERLERAVGRLEAVSHTSDMHCGYGDSPSKGAVPYVQAFDSLLANPVAEYLKMSKEIGGDVQKHAEMVHTGLKLERALLATASQCQQPAGNKLSDLLAPISEQIQEVITFREKNRGSKFFNHLSAVSESIQALGWVALAAKPGPFVKEMNDAAMFYTNRVLKEYRDVDKKHVDWVRAYLSIWTELQAYIKEFHTTGLAWSKTGPVAKELSGLPSGPSVGSGPPPPPPGPPPPPISTSSGSDDSASRSALFAQINQGESITHALKHVSDDMKTHKNPALKAQSGPVRSGPKPFSAPKPQTSPSPKPATKKEPALLELEGKKWRVENQENVSNLVIDDTELKQVAYIYKCVNTTLQIKGKINSITVDNCKKLGLVFDDVVGIVEIINSRDVKVQVMGKVPTISINKTDGCHAYLSKNSLDCEIVSAKSSEMNVLIPTEGGDFNEFPVPEQFKTLWNGQKLVTTVTEIAG
B8: the binding entry is “binds”.

B9: Rdh13 (protein, UniProt Q8CEE7 1-334)
chain: MSRFLLPVSVVGTVIGGTVLLKDYVAGGACPSKATIPGKTVIVTGANTGIGKQTALELAKRGGNVILACRDMEKCEVAAKDIRGETLNPRVRAERLDLASLKSIREFARKVIKEEERVDILVNNAAVMRCPHWTTEDGFEMQFGVNYLGHFLLTNLLLDKLKASAPSRIINLSSLAHVAGHIDFEDLNWQMKKYDTKAAYCQSKLAVVLFTKELSHRLQGSGVTVNALHPGVARTELGRHTGMHNSAFSGFMLGPFFWLLFKSPQLAAQPSTYLAVAEELENVSGKYFDGLREKAPSPEAEDEEVARRLWTESARLVGLAMAHGSPGRGHAIPR
For B9, the binding result is “binds”.

B10: Slc25a3 (protein, UniProt Q8VEM8 46-357)
chain: AVEEYSCEFGSMKYYALCGFGGVLSCGLTHTAVVPLDLVKCRMQVDPQKYKGIFNGFSITLKEDGVRGLAKGWAPTLIGYSMQGLCKFGFYEVFKALYSNILGEENTYLWRTSLYLASSASAEFFADIALAPMEAAKVRIQTQPGYANTLREAVPKMYKEEGLNAFYKGVAPLWMRQIPYTMMKFACFERTVEALYKFVVPKPRSECTKAEQLVVTFVAGYIAGVFCAIVSHPADSVVSVLNKEKGSTASQVLQRLGFRGVWKGLFARIIMIGTLTALQWFIYDSVKVYFRLPRPPPPEMPESLKKKLGLTE
B10: the binding result is “binds”.

B11: Slc33a1 (protein, UniProt Q99J27 1-550)
chain: MSPTISHKDSSRQRRSGMFSHALDMKSGPLPPGGWDDSRRDSVGGEGDREVLLGDAGPGDLPKAPRSYRSELSSILLLLFLYVLQGIPLGLAGSIPLILQSKNVSYTDQAFFSFVFWPFSLKLLWAPLVDAVYFKNFGRRKSWLVPTQYTLGIFMIYLSTQVDRLLGNIDGRTPDVVALTVTFFLFEFLAATQDIAVDGWALTMLSRENVGYASTCNSVGQTAGYFLGNVLFLALESADFCNKYLRFQPQPRGIVTLSDFLFFWGTVFLITTTLVALLKKENREASIVKEETQGITDTYKLLFSIIKMPAVLAFCLLILTSKIGFSAADAVTGLKLVEEGVPKEHLALLAVPMVPLQIILPLLISKYTAGPQPLNIFYKAMPYRLLLGLEYALLVWWTPKVEHQGGFPLYYYIIVLLSYALHQVTLYSMYVSIMAFNAKVSDPLIGGTYMTLLNTVSNLGGNWPSTVALWLVDPLTVKECVGASNQNCRTPDAIELCKKLGGSCVTALDGYYVESIICVLIGFGWWFFLGPKFKKLQDEGPSSWKCKRNN
Turning to B11, the binding result is given as “binds”.

B12: Fcgr3 (protein, UniProt P08508 31-261)
chain: ALPKAVVKLDPPWIQVLKEDMVTLMCEGTHNPGNSSTQWFHNGRSIRSQVQASYTFKATVNDSGEYRCQMEQTRLSDPVDLGVISDWLLLQTPQRVFLEGETITLRCHSWRNKLLNRISFFHNEKSVRYHHYKSNFSIPKANHSHSGDYYCKGSLGSTQHQSKPVTITVQDPATTSSISLVWYHTAFSLVMCLLFAVDTGLYFYVRRNLQTPREYWRKSLSIRKHQAPQDK
In the case of B12, the binding result is recorded as “binds”.

B13: Slc25a11 (protein, UniProt Q9CR62 1-314)
chain: MAATASPGAGRMDGKPRTSPKSVKFLFGGLAGMGATVFVQPLDLVKNRMQLSGEGAKTREYKTSFHALTSILKTEGLKGIYTGLSAGLLRQATYTTTRLGIYTVLFERLTGADGTPPGFLLKALIGMTAGATGAFVGTPAEVALIRMTADGRLPADQRRGYKNVFNALVRIAREEGVPTLWRGCIPTMARAVVVNAAQLASYSQSKQFLLDSGYFSDNILCHFCASMISGLVTTAASMPVDIVKTRIQNMRMIDGKPEYKNGLDVLLKVVRYEGFFSLWKGFTPYYARLGPHTVLTFIFLEQMNKAYKRLFLSG
B13: the binding result is listed as “binds”.
